Measured values from the supplement of paper PMC3334620.
In all, about 33,000 sequences were measured (“E-score (-0.5 to 0.5)”: median about -0.0014, highest 2% from about 0.25 on). Some of the results follow.

Target: T1, Cad1 (UniProt P24813)
T1 sequence: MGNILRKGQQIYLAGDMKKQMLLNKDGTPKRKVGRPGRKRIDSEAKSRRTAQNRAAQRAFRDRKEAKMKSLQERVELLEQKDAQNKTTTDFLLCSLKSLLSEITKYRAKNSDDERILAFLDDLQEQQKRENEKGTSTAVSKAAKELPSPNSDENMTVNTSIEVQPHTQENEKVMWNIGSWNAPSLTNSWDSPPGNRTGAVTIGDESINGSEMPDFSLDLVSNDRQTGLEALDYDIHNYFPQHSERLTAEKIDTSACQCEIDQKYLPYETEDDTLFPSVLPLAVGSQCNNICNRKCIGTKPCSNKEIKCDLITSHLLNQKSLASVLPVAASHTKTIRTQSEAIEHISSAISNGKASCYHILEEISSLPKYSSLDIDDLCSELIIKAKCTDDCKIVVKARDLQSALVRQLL
Assay: PBM E-score (8-mer binding enrichment) (E-score (-0.5 to 0.5)); higher = stronger / more preferred TF binding
Details: protein concentration: 100 nM; construct: GST-full length
In short: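 Each ungapped eight-base word and its reverse complement, pooled, received an E-score from the Universal PBM Analysis Suite. Underlying scans, normalised with masliner, recorded fluorescent anti-GST bound to GST-tagged yeast transcription factors. These were applied at about 100-200 nM to universal all-10-mer Agilent arrays double-stranded by primer extension.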

Row | Sequence | PBM E-score
1 | TAACGAAA | 0.26
2 | GAACATAC | 0.0334
3 | ACAAAAAC | 0.248
4 | GGCAACAC | 0.0577
5 | GACTACAA | -0.127
6 | ACGAGCGA | 0.0401
7 | CGCAGATA | 0.00255
8 | ATCTCGAC | 0.0915
9 | CAGGAGGA | -0.292
10 | GAATGGCA | -0.16
11 | ACAGTGCG | -0.0424
12 | GAGCGATA | 0.0906
13 | ACTCCTCG | 0.0152
14 | CTAGTTGC | 0.0214
15 | AAGAATAT | -0.0257
16 | GCGCACAA | 0.24
17 | ACGGTGTA | 0.0708
18 | CGTCCCCC | -0.494
19 | AGTCGTTA | -0.0111
20 | ATACCATC | 0.0988
21 | CCTTGTTA | -0.0461
22 | ATCTGATG | 0.00913
23 | GCGGAAAC | -0.151
24 | ATAATCGG | 0.126
25 | AGTCTGGG | -0.109

Row | Sequence | PBM E-score
26 | AACACGGC | -0.0858
27 | AACTCTTG | -0.0936
28 | AGCAATGC | 0.202
29 | AGTCGATA | 0.0177
30 | AGATGGGA | -0.204
31 | AGACAGAT | 0.131
32 | ATAAGGCC | 0.00589
33 | GATCAAAA | 0.144
34 | AAACGAAG | 0.0229
35 | CGACGTTC | -0.265
36 | CTCTGCAA | -0.124
37 | ATTCCTAA | 0.0977
38 | GCGACTCC | -0.205
39 | TGTCATAA | 0.137
40 | GTAAAAAA | 0.137
41 | TGGCTAAA | 0.0225
42 | GTGCGCCA | -0.14
43 | ATACGCTA | 0.0632
44 | AGACGGAG | -0.033
45 | GATATGAA | 0.113
46 | CACAGCGA | 0.133
47 | CCGTTACC | -0.0536
48 | GTCGAATA | 0.011
49 | CATAATGG | -0.15
50 | ATCTTAGA | 0.0752

Row | Sequence | PBM E-score
51 | ATTATGTA | 0.311
52 | GTGACGCA | 0.0431
53 | AAGTATAC | 0.159
54 | ACGTCTGG | 0.00628
55 | ACTCCCCC | -0.384
56 | ACTTGAAC | 0.0412
57 | CACTAATG | -0.0516
58 | ACCAGTCT | -0.116
59 | ACTCTTCA | -0.0384
60 | ACCGGTTG | 0.0637
61 | CGTCTCTC | -0.00939
62 | CGGGGGCA | -0.409
63 | CAACCAAG | -0.0607
64 | CAAAAACG | 0.154
65 | CTCGAAAA | -0.0994
66 | ACCTCTGG | -0.148
67 | CAGACCCC | -0.299
68 | AAACCCTA | -0.0833
69 | GACGAATC | 0.0657
70 | AGTAACAG | 0.0348
71 | CGCTCATA | 0.0319
72 | AGATACCC | 0.0764
73 | AAGCCCGG | -0.00105
74 | ACATGAGC | -0.0831
75 | GAACGATA | -0.0378

Row | Sequence | PBM E-score
76 | GGATCACA | 0.114
77 | TAGAGAGA | -0.014
78 | CCCCAGGG | -0.42
79 | AGAGATGG | 0.081
80 | ACAAATCA | 0.279
81 | GTGATAAC | 0.0507
82 | CGGTTCTA | 0.06
83 | ATGCCCAC | 0.0213
84 | CTCCAACC | -0.0598
85 | CACCGCCA | 0.0256
86 | CAATTGCC | 0.201
87 | GCGTCGCC | 0.0318
88 | AGTTCGAG | 0.179
89 | AAATTCAC | 0.0164
90 | AACGTCAC | 0.0773
91 | GGGCGCAA | 0.117
92 | GGATTATA | -0.015
93 | GATAAATA | 0.123
94 | GGCTAAAC | -0.00104
95 | TGGTTGAA | -0.0127
96 | ATGATCCC | -0.102
97 | CACCGAAG | 0.0732
98 | CGTAACAG | 0.0559
99 | ACGGGGAG | -0.251
100 | ATTCAAAG | -0.0586

Row | Sequence | PBM E-score
101 | CGCGGGTC | 0.17
102 | ATCCTACA | -0.12
103 | CGCAAGGC | 0.0568
104 | CGGAGCAC | -0.0863
105 | ATCATGCG | -0.089
106 | AACTCCGC | -0.0222
107 | CAGACCTA | 0.0967
108 | CAACGACA | 0.064
109 | CCTTAGTA | 0.0752
110 | GGGTAAAC | 0.0753
111 | GAACAGTA | 0.114
112 | ACCAGGGT | -0.266
113 | CAGAATGG | -0.00601
114 | ACCTTGAG | 0.0462
115 | CCGGCCCC | -0.302
116 | GTTATACA | 0.171
117 | GTGAATCA | -0.00155
118 | AACTGTAC | -0.0792
119 | AAATGTGT | 0.214
120 | AGACGTCT | -0.084
121 | AGCGAATA | 0.0477
122 | TCAATGCA | -0.0451
123 | CTGATGTA | 0.115
124 | CGCACTGC | 0.0981
125 | AAATTTAC | 0.233

Row | Sequence | PBM E-score
126 | GAAAAACC | 0.0979
127 | CTCGGTGC | 0.113
128 | AGCTCAGC | 0.00713
129 | AACCATCG | 0.109
130 | ACGCAGGG | -0.155
131 | AAGCGGGG | -0.0862
132 | CGTTTAAG | 0.0242
133 | TACGCCGA | -0.118
134 | CACAGCTG | -0.0457
135 | CTCACGGC | -0.118
136 | ATTGTACC | 0.163
137 | GGTACCGA | -0.222
138 | CAGTTAGG | 0.0986
139 | AGTCTTAG | -0.192
140 | AAATAGGG | 0.143
141 | GGCACTTA | 0.00656
142 | AACACGCG | 0.131
143 | AGCGTAAA | 0.0495
144 | ATGCTAAA | 0.0771
145 | CAAAAATC | 0.0761
146 | CCACAGCA | 0.109
147 | CATCTTGC | 0.0589
148 | ACCGCAAT | 0.125
149 | GGAGCACA | -0.0636
150 | AGCGCTCC | 0.114

Row | Sequence | PBM E-score
151 | ATGGTGTA | 0.0489
152 | GGTGCGTA | -0.0216
153 | AAAATTTG | 0.196
154 | CATATGCC | 0.121
155 | GCGGATCA | 0.182
156 | TCTCACCA | 0.0644
157 | AGATAACT | 0.0425
158 | ATTTGCCA | -0.0587
159 | CGACAGGC | -0.0127
160 | ACGGGTAG | -0.138
161 | ACCTCCAG | -0.128
162 | GTAATTCA | 0.214
163 | GCCATGAC | -0.00687
164 | AAAAGCGT | -0.0001
165 | AAGCTATC | 0.136
166 | ATGTACGA | -0.0159
167 | CAGGAACG | 0.106
168 | ATCAGTGC | 0.0108
169 | CTGAGAGA | -0.0253
170 | ATGAAGTG | 0.0478
171 | GTAACCGA | 0.172
172 | AAACCATC | 0.122
